Further values from the same series stand in other lists.
Test system: 22Rv1 cells
Test: Global proteome analysis (LC-MS/MS, DIA) of differentially expressed proteins
Assay type: cell-based, human
Experimental: 22Rv1 cells were seeded in T75 culture bottles (4 × 10^6 cells/bottle in 20 mL/bottle), treated for 48 h with the 5 µM of compound 11 or vehicle (DMSO), harvested by scratching, washed twice with ice-cold PBS and flash-frozen. Cells were lysed and sonicated. The protein extracts were then heat-denaturated, reduced, alkylated and digested by trypsin. Peptides were chromatographically separated using full recovery autosampler vials and a nano-UPLC system (Acquity, Waters Corporation, Milford, MS, USA), coupled via electrospray ionization (ESI) to a tandem mass spectrometer equipped with a quadrupole and an orbitrap (QExactive, Thermo Fisher Scientific, Bremen, Germany), using MS/MS mode in data dependent acquisition (DDA) and data independent acquisition (DIA). The peptides, analyzed with DDA-LC-MS/MS, were identified with the search engine Sequest, integrated in the Proteome Discoverer software version 2.0 (Thermo Fischer Scientific) using the human Uniprot protein database (EMBL; Hinxton Cambridge, UK, release December 2018). […] For the details of sample preparation and proceeding, data acquisition and analysis see the Supplementary information. […]
serum (FBS, Invitrogen) and 1% penicillin/streptomycin (Invitrogen)). […]
Cell lines were lysed in 100 mM triethylammonium bicarbonate and 1% w/v sodium deoxycholate buffer followed by probe sonication to destroy polynucleotides and heat induce protein denaturing at 99 °C for 5 min. Protein concentrations were estimated with a bicinchonic acid (BCA) protein assay (Thermo Fisher Scientific, Bremen, Germany). 20 µg of protein were reduced in presence of 10 mM dithiotreithol (Sigma Aldrich) for 30 min at 60 °C followed by cysteine alkylation with 20 mM iodo acetamide (Sigma Aldrich) for 30 min at 37 °C in the dark and enzymatic degradation with sequencing grade trypsin (Promega) over night at 37 °C. Digestion was quenched with 1% formic acid (FA), precipitated sodium deoxycholate removed by centrifugation for 5 min at 14,000 g and the supernatant was dried in a vacuum centrifuge.
LC-MS/MS in Data Dependent and Data Independent Mode
Samples were resuspended in 0.1% FA and transferred into a full recovery autosampler vial (Waters). Chromatographic separation was achieved on a nano -UPLC system (Acquity, Waters Corporation, Milford, MS, USA) with a two-buffer-system (buffer A: 0.1% FA in water, buffer B:
0.1% FA in Acetonitrile (ACN), both at pH = 3). Attached to the UPLC was a reversed -phase peptide trapping column (Symmetry C18, 180 µm × 20 mm, 100 Å pore size, 5 µm particle size) for desalting, followed by a reversed-phase capillary separation of the tryptic peptides (BEH C18; 75 µm × 200 mm, 130 Å pore size, 1.7 µm particle size), using a 60 min gradient with increasing ACN concentration from 2–30% ACN. The eluting peptides were analyzed on a quadrupole-orbitrap mass spectrometer (QExactive, Thermo Fisher Scientific, Bremen, Germany) in data dependent acquisition (DDA) and data independent acquisition (DIA) for quantification.
In DDA mode, one replicate of each cell line was randomly chosen and 1 µg per sample was used per LC-MS/MS run to build a reference spectral library used for data extraction of samples acquired in DIA mode. For DDA, the 12 most intense ions per precursor scan (1 × 10 6 ions, 70,000 Resolution, 120 ms fill time) were analyzed by MS/MS (HCD at 25 normalized collision energy, 1 × 105 ions, 17,500 Resolution, 50 ms fill time) in a range of 400–1300 m/z. A dynamic precursor exclusion of 20 s was used. For DIA, 1 µg of each sample was analyzed using a 30 sequential 20 Da fixed window method covering the mass range from 400 –1000 m/z. Per cycle, 2 precursor scans (1 × […]
28 normalized collision energy, 1 × 106 ions, 17,500 Resolution, 50 ms fill time) were performed.
After the first precursor scan, 15 MS/MS scans were performed covering the precursor mass range from 400–700 m/z followed by the second precursor scan and another 15 MS/MS scans ranging from […]
LC-MS/MS Data Processing and Analysis […]

Structure (SMILES): CC1(C)OC2OC(C(O)COC3=CC(=O)c4cccc(O)c4C3=O)C(O)C2O1 (stereo not drawn) [Compound 11]
- Fold change (treated / control) (protein PTCD3_HUMAN (Q96EY7)): 0.8017
- Fold change (treated / control) (protein PYC_HUMAN (P11498)): 0.7167
- Fold change (treated / control) (protein PYR1_HUMAN (P27708)): 0.8386
- Fold change (treated / control) (protein RAB13_HUMAN (P51153)): 0.5414
- Fold change (treated / control) (protein RBBP4_HUMAN (Q09028)): 0.7477
- Fold change (treated / control) (protein RBM3_HUMAN (P98179)): 0.4156
- Fold change (treated / control) (protein RBM15_HUMAN (Q96T37)): 0.6754
- Fold change (treated / control) (protein RFC1_HUMAN (P35251)): 0.5451
- Fold change (treated / control) (protein RIR1_HUMAN (P23921)): 0.7104
- Fold change (treated / control) (protein RL3_HUMAN (P39023)): 0.765
- Fold change (treated / control) (protein RL5_HUMAN (P46777)): 0.7312
- Fold change (treated / control) (protein RL7A_HUMAN (P62424)): 0.6916
- Fold change (treated / control) (protein RL8_HUMAN (P62917)): 0.705
- Fold change (treated / control) (protein RL9_HUMAN (P32969)): 0.3596
- Fold change (treated / control) (protein RL17_HUMAN (P18621)): 0.7086
- Fold change (treated / control) (protein RL18_HUMAN (Q07020)): 0.4989
- Fold change (treated / control) (protein RL21_HUMAN (P46778)): 0.7748
- Fold change (treated / control) (protein RL24_HUMAN (P83731)): 0.7258
- Fold change (treated / control) (protein RL29_HUMAN (P47914)): 0.5022
- Fold change (treated / control) (protein RL30_HUMAN (P62888)): 0.5421
- Fold change (treated / control) (protein RL31_HUMAN (P62899)): 0.4309
- Fold change (treated / control) (protein RL36L_HUMAN (Q969Q0)): 0.4658
- Fold change (treated / control) (protein RM15_HUMAN (Q9P015)): 0.5026
- Fold change (treated / control) (protein RM16_HUMAN (Q9NX20)): 0.5171
- Fold change (treated / control) (protein RM17_HUMAN (Q9NRX2)): 0.5436
- Fold change (treated / control) (protein RM19_HUMAN (P49406)): 0.6745
- Fold change (treated / control) (protein RM37_HUMAN (Q9BZE1)): 0.5246
- Fold change (treated / control) (protein RM38_HUMAN (Q96DV4)): 0.7528
- Fold change (treated / control) (protein ROA1_HUMAN (P09651)): 0.6844
- Fold change (treated / control) (protein RPAB4_HUMAN (P53803)): 0.7108
- Fold change (treated / control) (protein RPB2_HUMAN (P30876)): 0.4541
- Fold change (treated / control) (protein RS3A_HUMAN (P61247)): 0.7836
- Fold change (treated / control) (protein RS3_HUMAN (P23396)): 0.7838
- Fold change (treated / control) (protein RS4X_HUMAN (P62701)): 0.7316
- Fold change (treated / control) (protein RS5_HUMAN (P46782)): 0.7012
- Fold change (treated / control) (protein RS8_HUMAN (P62241)): 0.7705
- Fold change (treated / control) (protein RS11_HUMAN (P62280)): 0.7006
- Fold change (treated / control) (protein RS14_HUMAN (P62263)): 0.6832
- Fold change (treated / control) (protein RS20_HUMAN (P60866)): 0.8472
- Fold change (treated / control) (protein RS25_HUMAN (P62851)): 0.7448
- Fold change (treated / control) (protein RS27A_HUMAN (P62979)): 0.7954
- Fold change (treated / control) (protein RT07_HUMAN (Q9Y2R9)): 0.6784
- Fold change (treated / control) (protein RT18A_HUMAN (Q9NVS2)): 0.5156
- Fold change (treated / control) (protein RT18B_HUMAN (Q9Y676)): 0.3594
- Fold change (treated / control) (protein RT22_HUMAN (P82650)): 0.7257
- Fold change (treated / control) (protein RT23_HUMAN (Q9Y3D9)): 0.4341
- Fold change (treated / control) (protein RT27_HUMAN (Q92552)): 0.5557
- Fold change (treated / control) (protein RT28_HUMAN (Q9Y2Q9)): 0.6729
- Fold change (treated / control) (protein RT34_HUMAN (P82930)): 0.3998
- Fold change (treated / control) (protein RU17_HUMAN (P08621)): 0.7694
- Fold change (treated / control) (protein S35B2_HUMAN (Q8TB61)): 0.6783
- Fold change (treated / control) (protein S39A7_HUMAN (Q92504)): 0.3788
- Fold change (treated / control) (protein SARNP_HUMAN (P82979)): 0.7452
- Fold change (treated / control) (protein SDF2L_HUMAN (Q9HCN8)): 0.8547
- Fold change (treated / control) (protein SDHB_HUMAN (P21912)): 0.4112
- Fold change (treated / control) (protein SF3B1_HUMAN (O75533)): 0.8384
- Fold change (treated / control) (protein SLD5_HUMAN (Q9BRT9)): 0.7628
- Fold change (treated / control) (protein SMC1A_HUMAN (Q14683)): 0.7088
- Fold change (treated / control) (protein SMD1_HUMAN (P62314)): 0.7686
- Fold change (treated / control) (protein SMRC2_HUMAN (Q8TAQ2)): 0.751
- Fold change (treated / control) (protein SND1_HUMAN (Q7KZF4)): 0.6826
- Fold change (treated / control) (protein SNF5_HUMAN (Q12824)): 0.7197
- Fold change (treated / control) (protein SP16H_HUMAN (Q9Y5B9)): 0.7259
- Fold change (treated / control) (protein SSNA1_HUMAN (O43805)): 0.6754
- Fold change (treated / control) (protein STEA2_HUMAN (Q8NFT2)): 0.3512
- Fold change (treated / control) (protein SUCB1_HUMAN (Q9P2R7)): 0.8325
- Fold change (treated / control) (protein SUCB2_HUMAN (Q96I99)): 0.8543
- Fold change (treated / control) (protein SUMO2_HUMAN (P61956)): 0.1159
- Fold change (treated / control) (protein SYAC_HUMAN (P49588)): 0.5085
- Fold change (treated / control) (protein SYAM_HUMAN (Q5JTZ9)): 0.5065
- Fold change (treated / control) (protein SYDM_HUMAN (Q6PI48)): 0.6768
- Fold change (treated / control) (protein SYF1_HUMAN (Q9HCS7)): 0.4892
- Fold change (treated / control) (protein SYPH_HUMAN (P08247)): 0.8591
- Fold change (treated / control) (protein SYQ_HUMAN (P47897)): 0.8152
- Fold change (treated / control) (protein SYTM_HUMAN (Q9BW92)): 0.4662
- Fold change (treated / control) (protein SYVC_HUMAN (P26640)): 0.8291
- Fold change (treated / control) (protein TBB4B_HUMAN (P68371)): 0.7221
- Fold change (treated / control) (protein TE2IP_HUMAN (Q9NYB0)): 0.8607
- Fold change (treated / control) (protein TEBP_HUMAN (Q15185)): 0.8374
- Fold change (treated / control) (protein TECR_HUMAN (Q9NZ01)): 0.7078
- Fold change (treated / control) (protein TFB2M_HUMAN (Q9H5Q4)): 0.6991
- Fold change (treated / control) (protein THIL_HUMAN (P24752)): 0.7393
- Fold change (treated / control) (protein THTR_HUMAN (Q16762)): 0.4968
- Fold change (treated / control) (protein TIM13_HUMAN (Q9Y5L4)): 0.5414
- Fold change (treated / control) (protein TM205_HUMAN (Q6UW68)): 0.723
- Fold change (treated / control) (protein TMX1_HUMAN (Q9H3N1)): 0.7963
- Fold change (treated / control) (protein TOM34_HUMAN (Q15785)): 0.4323
- Fold change (treated / control) (protein TOP2A_HUMAN (P11388)): 0.2459
- Fold change (treated / control) (protein TOP2B_HUMAN (Q02880)): 0.7139
- Fold change (treated / control) (protein TR112_HUMAN (Q9UI30)): 0.7955
- Fold change (treated / control) (protein TRAP1_HUMAN (Q12931)): 0.8199
- Fold change (treated / control) (protein TSN8_HUMAN (P19075)): 0.3645
- Fold change (treated / control) (protein U520_HUMAN (O75643)): 0.8108
- Fold change (treated / control) (protein UBE2T_HUMAN (Q9NPD8)): 0.4008
- Fold change (treated / control) (protein UBF1_HUMAN (P17480)): 0.7121
- Fold change (treated / control) (protein VGF_HUMAN (O15240)): 0.5125
- Fold change (treated / control) (protein VKOR1_HUMAN (Q9BQB6)): 0.7313
- Fold change (treated / control) (protein WDR36_HUMAN (Q8NI36)): 0.8098
- Fold change (treated / control) (protein YTHD2_HUMAN (Q9Y5A9)): 0.6968
- Fold change (treated / control) (protein ZBT10_HUMAN (Q96DT7)): 0.5298
- Fold change (treated / control) (protein ZC11A_HUMAN (O75152)): 0.7642
- Fold change (treated / control) (protein ZFPL1_HUMAN (O95159)): 0.7601
